Measurements from the supplement of paper PMC10849652.
The other results are listed elsewhere or left out. Residues, ends and D or L forms follow the SMILES beside them. *: point of attachment. Cbz = O=C(OCc1ccccc1)*

By UniProt entry, the sequences of proteins in these tests, tags left out. Where a name states a change or a piece, a line headed by the entry shows the natural chain unless it says otherwise.
UniProt Q9C0B0: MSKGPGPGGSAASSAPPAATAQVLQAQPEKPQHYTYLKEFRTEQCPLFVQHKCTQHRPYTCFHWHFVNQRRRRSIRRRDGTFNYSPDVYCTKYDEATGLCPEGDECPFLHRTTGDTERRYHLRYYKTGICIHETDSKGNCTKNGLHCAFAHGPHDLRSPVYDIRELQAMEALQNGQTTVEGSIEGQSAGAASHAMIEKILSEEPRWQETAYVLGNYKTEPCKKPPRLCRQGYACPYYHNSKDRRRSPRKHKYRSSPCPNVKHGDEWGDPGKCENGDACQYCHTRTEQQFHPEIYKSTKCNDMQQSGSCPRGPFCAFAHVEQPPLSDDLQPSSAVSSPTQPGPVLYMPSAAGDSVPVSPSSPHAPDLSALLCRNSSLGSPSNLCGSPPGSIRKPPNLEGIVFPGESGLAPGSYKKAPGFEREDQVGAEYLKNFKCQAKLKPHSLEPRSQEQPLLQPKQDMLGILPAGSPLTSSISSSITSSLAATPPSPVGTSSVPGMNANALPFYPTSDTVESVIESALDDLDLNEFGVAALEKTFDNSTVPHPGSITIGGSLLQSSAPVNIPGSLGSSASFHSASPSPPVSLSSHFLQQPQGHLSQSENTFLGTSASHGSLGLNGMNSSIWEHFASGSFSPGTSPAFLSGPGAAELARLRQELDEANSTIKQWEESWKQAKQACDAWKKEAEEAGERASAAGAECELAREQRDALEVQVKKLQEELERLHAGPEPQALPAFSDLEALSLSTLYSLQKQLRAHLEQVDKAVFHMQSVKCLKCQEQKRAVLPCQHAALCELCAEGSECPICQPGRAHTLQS
UniProt Q9BRU9: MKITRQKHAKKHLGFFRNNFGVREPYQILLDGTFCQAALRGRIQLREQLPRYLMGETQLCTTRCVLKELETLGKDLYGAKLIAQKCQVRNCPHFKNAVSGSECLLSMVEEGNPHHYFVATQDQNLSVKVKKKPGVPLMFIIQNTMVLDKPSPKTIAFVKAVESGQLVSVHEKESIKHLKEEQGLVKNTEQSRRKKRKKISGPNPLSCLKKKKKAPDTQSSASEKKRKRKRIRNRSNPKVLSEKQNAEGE
UniProt Q68DE3: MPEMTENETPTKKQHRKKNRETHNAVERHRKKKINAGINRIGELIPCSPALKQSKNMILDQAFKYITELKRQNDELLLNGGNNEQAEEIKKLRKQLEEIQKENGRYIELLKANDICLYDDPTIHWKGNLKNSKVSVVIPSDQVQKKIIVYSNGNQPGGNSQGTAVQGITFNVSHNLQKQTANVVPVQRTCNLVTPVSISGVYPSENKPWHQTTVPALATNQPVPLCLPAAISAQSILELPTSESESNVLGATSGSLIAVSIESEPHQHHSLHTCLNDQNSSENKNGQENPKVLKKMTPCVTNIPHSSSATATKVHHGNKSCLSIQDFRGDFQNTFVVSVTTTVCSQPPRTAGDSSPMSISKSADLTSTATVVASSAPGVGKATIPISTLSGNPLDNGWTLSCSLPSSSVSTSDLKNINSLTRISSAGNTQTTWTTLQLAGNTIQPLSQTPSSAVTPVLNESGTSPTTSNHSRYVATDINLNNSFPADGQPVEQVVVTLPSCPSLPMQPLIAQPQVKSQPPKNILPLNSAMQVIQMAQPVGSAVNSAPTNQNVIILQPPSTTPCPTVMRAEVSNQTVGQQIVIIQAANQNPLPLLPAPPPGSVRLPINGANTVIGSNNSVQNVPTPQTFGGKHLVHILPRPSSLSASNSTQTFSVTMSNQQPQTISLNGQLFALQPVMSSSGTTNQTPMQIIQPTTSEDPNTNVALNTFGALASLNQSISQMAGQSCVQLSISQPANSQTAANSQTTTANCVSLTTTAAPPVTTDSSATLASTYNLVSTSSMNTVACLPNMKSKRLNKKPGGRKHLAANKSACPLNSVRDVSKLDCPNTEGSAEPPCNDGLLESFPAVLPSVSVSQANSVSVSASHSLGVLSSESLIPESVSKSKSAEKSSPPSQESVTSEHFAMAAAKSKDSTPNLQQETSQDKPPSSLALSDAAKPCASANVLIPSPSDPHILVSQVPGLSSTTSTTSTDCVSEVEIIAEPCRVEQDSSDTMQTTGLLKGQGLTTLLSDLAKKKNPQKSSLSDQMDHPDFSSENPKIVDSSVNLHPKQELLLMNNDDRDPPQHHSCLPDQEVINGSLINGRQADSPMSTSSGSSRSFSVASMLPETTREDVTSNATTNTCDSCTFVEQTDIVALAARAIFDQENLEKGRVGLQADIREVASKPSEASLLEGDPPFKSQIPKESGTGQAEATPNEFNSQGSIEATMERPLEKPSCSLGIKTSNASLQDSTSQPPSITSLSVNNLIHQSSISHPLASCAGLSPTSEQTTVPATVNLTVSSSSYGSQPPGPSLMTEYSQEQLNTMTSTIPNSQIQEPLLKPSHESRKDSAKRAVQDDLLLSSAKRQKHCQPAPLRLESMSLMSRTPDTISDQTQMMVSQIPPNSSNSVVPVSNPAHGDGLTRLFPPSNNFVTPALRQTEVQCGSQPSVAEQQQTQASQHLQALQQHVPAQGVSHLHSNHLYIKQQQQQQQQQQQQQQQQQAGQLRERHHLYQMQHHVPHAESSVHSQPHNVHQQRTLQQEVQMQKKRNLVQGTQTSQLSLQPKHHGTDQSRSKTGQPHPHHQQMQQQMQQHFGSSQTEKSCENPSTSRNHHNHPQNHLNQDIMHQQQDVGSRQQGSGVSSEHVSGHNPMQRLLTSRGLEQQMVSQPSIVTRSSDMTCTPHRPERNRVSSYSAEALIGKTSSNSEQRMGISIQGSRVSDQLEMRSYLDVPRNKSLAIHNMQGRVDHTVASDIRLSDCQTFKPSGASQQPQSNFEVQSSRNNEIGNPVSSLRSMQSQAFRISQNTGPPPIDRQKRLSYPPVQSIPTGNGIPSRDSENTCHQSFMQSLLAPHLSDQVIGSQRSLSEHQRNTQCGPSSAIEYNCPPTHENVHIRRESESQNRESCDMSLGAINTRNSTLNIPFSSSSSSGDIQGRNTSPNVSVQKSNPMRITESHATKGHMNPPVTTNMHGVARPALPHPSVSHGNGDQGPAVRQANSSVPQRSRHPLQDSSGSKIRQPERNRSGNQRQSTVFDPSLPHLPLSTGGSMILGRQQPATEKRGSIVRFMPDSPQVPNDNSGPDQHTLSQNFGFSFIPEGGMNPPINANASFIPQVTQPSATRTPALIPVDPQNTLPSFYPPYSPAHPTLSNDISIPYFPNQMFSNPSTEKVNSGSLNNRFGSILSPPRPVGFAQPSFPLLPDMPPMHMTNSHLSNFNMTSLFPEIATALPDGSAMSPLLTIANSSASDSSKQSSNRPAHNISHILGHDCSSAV
UniProt Q8IZJ1, whole entry, looked up: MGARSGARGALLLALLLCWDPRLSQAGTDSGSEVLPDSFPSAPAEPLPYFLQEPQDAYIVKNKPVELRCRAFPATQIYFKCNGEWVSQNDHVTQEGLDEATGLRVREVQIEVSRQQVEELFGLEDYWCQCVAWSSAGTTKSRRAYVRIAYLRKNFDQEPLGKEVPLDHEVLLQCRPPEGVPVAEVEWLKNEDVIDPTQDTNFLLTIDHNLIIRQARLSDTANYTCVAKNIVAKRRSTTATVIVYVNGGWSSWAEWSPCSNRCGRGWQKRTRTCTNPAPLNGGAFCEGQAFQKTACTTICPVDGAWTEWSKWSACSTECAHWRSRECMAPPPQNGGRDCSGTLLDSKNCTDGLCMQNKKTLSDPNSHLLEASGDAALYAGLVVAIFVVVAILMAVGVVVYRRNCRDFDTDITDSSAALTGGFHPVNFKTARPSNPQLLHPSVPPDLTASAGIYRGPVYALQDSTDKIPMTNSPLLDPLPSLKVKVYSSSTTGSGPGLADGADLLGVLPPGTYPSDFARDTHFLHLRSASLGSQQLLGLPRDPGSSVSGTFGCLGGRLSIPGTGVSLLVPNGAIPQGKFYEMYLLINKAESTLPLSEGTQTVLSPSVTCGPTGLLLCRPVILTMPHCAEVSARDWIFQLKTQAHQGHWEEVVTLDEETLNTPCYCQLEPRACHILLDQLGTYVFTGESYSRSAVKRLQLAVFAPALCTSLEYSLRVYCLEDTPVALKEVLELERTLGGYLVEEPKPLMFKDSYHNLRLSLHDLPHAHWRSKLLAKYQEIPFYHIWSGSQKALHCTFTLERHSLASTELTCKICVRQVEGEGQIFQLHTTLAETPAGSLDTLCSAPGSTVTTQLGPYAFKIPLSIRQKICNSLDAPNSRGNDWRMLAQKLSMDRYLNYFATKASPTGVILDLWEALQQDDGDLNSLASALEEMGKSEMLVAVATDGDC
UniProt Q14146: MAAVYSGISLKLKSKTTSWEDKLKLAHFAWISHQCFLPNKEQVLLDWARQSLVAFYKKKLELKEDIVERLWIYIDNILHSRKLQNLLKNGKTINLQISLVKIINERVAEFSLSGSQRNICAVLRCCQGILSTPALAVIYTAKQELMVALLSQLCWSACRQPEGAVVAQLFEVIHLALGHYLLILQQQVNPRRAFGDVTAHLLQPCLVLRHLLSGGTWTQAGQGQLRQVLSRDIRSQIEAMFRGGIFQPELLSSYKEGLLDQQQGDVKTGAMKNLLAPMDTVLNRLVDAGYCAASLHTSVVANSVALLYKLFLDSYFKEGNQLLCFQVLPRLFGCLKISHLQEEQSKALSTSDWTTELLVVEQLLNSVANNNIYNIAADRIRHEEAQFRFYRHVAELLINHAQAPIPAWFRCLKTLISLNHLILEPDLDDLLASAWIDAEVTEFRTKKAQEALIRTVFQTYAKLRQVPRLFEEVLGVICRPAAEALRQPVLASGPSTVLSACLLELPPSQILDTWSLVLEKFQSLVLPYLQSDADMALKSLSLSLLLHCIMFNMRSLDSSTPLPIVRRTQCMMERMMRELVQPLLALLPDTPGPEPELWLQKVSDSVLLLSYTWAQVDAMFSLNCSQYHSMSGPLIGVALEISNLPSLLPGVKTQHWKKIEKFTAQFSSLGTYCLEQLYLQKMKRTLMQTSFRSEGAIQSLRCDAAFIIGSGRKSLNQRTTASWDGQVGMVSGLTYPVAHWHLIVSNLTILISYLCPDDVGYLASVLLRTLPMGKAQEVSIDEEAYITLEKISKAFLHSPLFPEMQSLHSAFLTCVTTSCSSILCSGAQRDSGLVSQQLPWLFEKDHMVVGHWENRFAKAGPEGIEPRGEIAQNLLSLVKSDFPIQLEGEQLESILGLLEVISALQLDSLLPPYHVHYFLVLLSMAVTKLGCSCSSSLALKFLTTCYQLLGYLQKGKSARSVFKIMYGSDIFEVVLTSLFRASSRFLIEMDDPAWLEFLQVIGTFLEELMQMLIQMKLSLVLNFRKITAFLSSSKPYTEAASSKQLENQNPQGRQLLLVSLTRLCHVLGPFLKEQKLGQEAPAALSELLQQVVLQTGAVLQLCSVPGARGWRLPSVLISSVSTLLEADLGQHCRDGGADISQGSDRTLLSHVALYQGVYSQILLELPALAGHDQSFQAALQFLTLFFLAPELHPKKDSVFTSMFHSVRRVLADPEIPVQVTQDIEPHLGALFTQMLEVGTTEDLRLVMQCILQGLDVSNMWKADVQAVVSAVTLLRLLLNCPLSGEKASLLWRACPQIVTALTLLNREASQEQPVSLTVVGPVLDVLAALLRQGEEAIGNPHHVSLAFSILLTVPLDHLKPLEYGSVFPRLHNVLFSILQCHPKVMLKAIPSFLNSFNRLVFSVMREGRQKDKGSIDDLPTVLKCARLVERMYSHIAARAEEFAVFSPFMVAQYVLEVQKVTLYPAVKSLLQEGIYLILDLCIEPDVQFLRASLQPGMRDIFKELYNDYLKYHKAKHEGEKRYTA
UniProt Q6NVU6: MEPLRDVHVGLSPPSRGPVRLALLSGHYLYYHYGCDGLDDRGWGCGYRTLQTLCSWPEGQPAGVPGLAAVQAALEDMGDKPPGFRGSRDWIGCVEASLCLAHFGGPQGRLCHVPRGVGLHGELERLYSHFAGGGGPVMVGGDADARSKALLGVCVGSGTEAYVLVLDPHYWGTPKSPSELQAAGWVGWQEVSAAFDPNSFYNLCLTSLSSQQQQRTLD
UniProt Q9Y5J1: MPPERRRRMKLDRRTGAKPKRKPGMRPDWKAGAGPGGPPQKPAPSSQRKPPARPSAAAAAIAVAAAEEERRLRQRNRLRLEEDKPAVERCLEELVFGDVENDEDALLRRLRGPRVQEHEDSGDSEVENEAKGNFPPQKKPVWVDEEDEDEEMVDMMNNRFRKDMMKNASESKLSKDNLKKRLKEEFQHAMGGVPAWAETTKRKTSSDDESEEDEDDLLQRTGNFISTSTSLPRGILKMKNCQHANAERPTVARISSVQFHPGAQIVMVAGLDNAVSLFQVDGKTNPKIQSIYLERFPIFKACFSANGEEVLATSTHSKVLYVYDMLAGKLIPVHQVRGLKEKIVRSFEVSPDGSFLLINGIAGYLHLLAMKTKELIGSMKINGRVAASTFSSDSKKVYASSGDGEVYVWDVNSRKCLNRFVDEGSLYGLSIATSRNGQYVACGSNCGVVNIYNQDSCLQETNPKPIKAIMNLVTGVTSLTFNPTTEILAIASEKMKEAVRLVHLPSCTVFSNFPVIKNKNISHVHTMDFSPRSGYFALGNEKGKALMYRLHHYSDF

Legend:
Assay in all cases: log2 fold change, soluble protein after heating vs DMSO (PISA); higher = thermal stabilisation; K562 cells, 10 uM, 30 min; active = over 0.2 and 3.5 SD of the protein, either way, in both replicates (recomputed)
[1] = compound: C#Cc1cccc(Nc2ncnc3cc(OCCOC)c(OCCOC)cc23)c1 [erlotinib]
How it was run: (§1)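 For each measurement, 10 μM compound was applied for 30 min to K562 cells at 2×10^6 cells/mL. Aliquots were heated for 3 min across 48°C-58°C, pooled, and extracted in PBS with 0.5% NP-40 at 4°C; the supernatant after 21,000xg for 90 min was soluble protein. This was quantified by TMTpro 16plex LC-MS/MS with channel sums equalised, and thermal stability was reported relative to control samples from duplicates, on a log2 fold-change scale.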

[2] = compound: C/C(=N\NC(=O)C1=CC(=CC=C1)S(=O)(=O)N2CCOCC2)/C3=C(C=CC(=C3)Cl)O
How it was run: as §1

[3] = compound: C1=CC(=CC=C1C2=NC3=C(N2)C=C(C=C3)C(=O)N)OC4=CC=C(C=C4)Cl
How it was run: as §1

[4] = compound: C1=CC2=C(C=CC(=C2)/C=C\3/C(=O)NC(=NCC4=CC=CS4)S3)N=C1
How it was run: as §1

[5] = compound: C1=CC2=NC=CN=C2C=C1/C=C/3\C(=O)NC(=O)S3
How it was run: as §1

[6] = compound: C1=CC=C2C(=C1)C3=NNC4=CC=CC(=C43)C2=O
How it was run: as §1

[7] = compound: C1CCN(C1)C(=O)NC2=CC=CC(=C2)NC3=NC=C(C(=N3)NCCC4=CN=CN4)Br
How it was run: as §1

[8] = compound: C1CN(CCC1(CC2=CC=C(C=C2)Cl)N)C3=NC=NC4=C3C=CN4
How it was run: as §1

[9] = compound: C1COCCN1CCN2C3=CC=CC=C3N=C2NC(=O)C4=CC(=CC=C4)[N+](=O)[O-] [IRAK-1-4 Inhibitor I]
How it was run: as §1

[10] = compound: C=CC(=O)N1CCC[C@@H](n2nc(-c3ccc(Oc4ccccc4)cc3)c3c(N)ncnc32)C1 [ibrutinib]
How it was run: as §1

[11] = compound: CC(=O)c1cnc2ccc(-c3cc(Cl)c(O)c(Cl)c3)nc2c1N[C@H]1CC[C@H](CN(C)C)CC1
How it was run: as §1

[12] = compound: CC(C)C1=C2N=C(C=C(N2N=C1)NCC3=CC=CC=C3)NCCCCCCN
How it was run: as §1

[13] = compound: CC(C)N(C[C@H]1O[C@@H](n2cnc3c(N)ncnc32)[C@H](O)[C@@H]1O)[C@H]1C[C@@H](CCc2nc3cc(C(C)(C)C)ccc3[nH]2)C1 [pinometostat]
How it was run: as §1

[14] = compound: CC1=C(C(CC(=O)N1)C2=CC=C(C=C2)C(F)(F)F)C(=O)NC3=C(C=C4C(=C3)C=NN4)F
How it was run: as §1

[15] = compound: CC1=C(C2=C(C=C1)C(=O)C3=CC=CC=C3N2CCCN)C
How it was run: as §1

[16] = compound: C1=CC(=C(C=C1Cl)C2=NC3=NC=CN=C3C(=N2)NC4=CC=NC=C4)F
How it was run: as §1

[17] = compound: CC(C)(O)CC(=O)NCCn1ccc2ncnc(Nc3ccc(Oc4cccc(C(F)(F)F)c4)c(Cl)c3)c21
How it was run: as §1

[18] = compound: C1=CC=C(C=C1)C2=NC(=C(N2)C3=CC=NC=C3)C4=CC(=C(C=C4)Cl)O
How it was run: as §1

[19] = compound: CC(C)(C)Cn1c(N)nc2ccc(-c3[nH]c(C(C)(C)C)nc3-c3ccc(F)cc3)nc21 [ralimetinib]
How it was run: as §1

[20] = compound: CC(C)C[C@@H](C=O)NC(=O)[C@H](CC(C)C)NC(=O)[C@H](CC(C)C)NC(=O)OCc1ccccc1
How it was run: as §1

Measured: log2 fold change

UNK (UniProt Q9C0B0)
inactive: [1] -0.055 | [2] -0.002 | [3] 0.02 | [4] -0.014 | [5] -0.013 | [6] -0.008 | [7] -0.1 | [8] -0.03 | [9] -0.058 | [10] -0.003 | [11] -0.065 | [12] 0.007 | [13] 0.02 | [14] -0.032 | [15] 0.102

UPF3A (UniProt Q9H1J1)
inactive: [1] -0.02 | [16] -0.02 | [3] 0.007 | [9] -0.155 | [17] 0.12 | [12] 0.115 | [13] 0.199

UPP1 (UniProt Q16831)
inactive: [7] -0.239 | [8] -0.089 | [9] -0.562 | [13] 0.191 | [15] 0.005

UBTF (UniProt P17480)
inactive: [1] 0.195 | [2] -0.071 | [3] 0.067 | [4] 0.018 | [5] 0.128 | [18] 0.06 | [6] 0.08 | [9] -0.132 | [10] -0.016 | [11] -0.239 | [19] 0.113 | [12] -0.071 | [20] 0.259 | [13] 0.071

UNC13A (UniProt Q9UPW8)
inactive: [1] -0.021 | [3] 0.062 | [5] -0.016 | [7] 0.064 | [8] 0.077 | [10] 0.01 | [12] 0.021 | [15] 0.035

USP27X (UniProt A6NNY8)
inactive: [2] 0.183 | [16] -0.068 | [4] -0.089 | [18] -0.139 | [6] -0.211 | [7] 0.005 | [8] -0.058 | [11] 0.057 | [19] 0.092 | [17] -0.125 | [20] 0.063 | [15] 0.035

UNC119B (UniProt A6NIH7)
inactive: [1] 0 | [2] 0.124 | [3] 0.316 | [4] 0.031 | [5] 0.001 | [6] 0.005 | [7] -0.012 | [9] 0.113 | [10] 0.08 | [11] 0.028 | [19] 0.014 | [12] 0.272 | [20] 0.088 | [13] 0.126 | [15] -0.047
active: [18] 0.472 | [8] 0.454

UGP2 (UniProt C9JWG0)
inactive: [2] -0.29 | [4] 0.209 | [5] 0.019 | [6] 0.08 | [9] 0.141 | [10] 0.015 | [11] -0.181 | [13] 0.037 | [14] 0.174

UTP23 (UniProt Q9BRU9)
inactive: [14] 0.153

USP46 (UniProt P62068)
inactive: [1] 0.205 | [16] -0.175 | [3] 0 | [9] -0.066 | [17] -0.039 | [12] -0.052 | [13] 0.062

USF3 (UniProt Q68DE3)
inactive: [16] -0.149 | [5] -0.037 | [18] -0.002 | [9] 0.115 | [10] 0.075 | [19] 0.263 | [17] 0.078 | [20] -0.043 | [13] 0.153

USP12 (UniProt O75317)
inactive: [2] 0.113 | [4] 0.003 | [18] -0.059 | [6] 0.097 | [7] -0.278 | [8] 0.048 | [11] -0.215 | [19] 0.029 | [20] 0.004 | [15] 0.182

UBP1 (UniProt Q9NZI7)
inactive: [16] -0.391 | [5] 0.03 | [18] -0.155 | [7] 0.055 | [8] 0.042 | [9] 0.206 | [10] 0.056 | [19] 0.084 | [17] 0.147 | [20] 0.079 | [13] 0.042 | [14] 0.01 | [15] 0.005

VCPIP1 (UniProt Q96JH7)
inactive: [1] 0.101 | [16] -0.2 | [3] -0.105 | [17] 0.21 | [12] -0.752

UNC5B (UniProt Q8IZJ1)
inactive: [16] -0.442 | [7] 0.161 | [8] -0.127 | [17] 0.019 | [15] 0.243

URB2 (UniProt Q14146)
inactive: [1] -0.095 | [2] -0.13 | [3] 0.021 | [4] 0.124 | [5] 0.045 | [6] -0.215 | [9] 0.075 | [10] -0.229 | [11] 0.161 | [12] -0.391 | [13] 0.13 | [14] 0.075

UHRF1 isoform 2 (UniProt Q96T88)
inactive: [1] 0.105 | [3] 0.004 | [7] -0.034 | [8] 0.096 | [12] -0.191 | [15] -0.28

USB1 (UniProt Q9BQ65)
inactive: [1] 0.122 | [3] -0.09 | [7] -0.289 | [8] 0.054 | [12] -0.061 | [15] -0.103

UTP14C (UniProt Q5TAP6)
inactive: [1] 0.099 | [16] 0.024 | [3] -0.103 | [9] 0.002 | [17] -0.14 | [12] 0.028 | [13] -0.057

USP33 (UniProt Q8TEY7)
inactive: [1] 0.143 | [2] -0.132 | [3] -0.111 | [4] -0.352 | [18] 0.065 | [6] 0.078 | [7] 0.027 | [8] 0.034 | [11] 0.063 | [19] -0.031 | [12] -0.133 | [20] 0.024 | [15] -0.027

UFSP1 (UniProt Q6NVU6)
inactive: [1] 0.232 | [3] 0.091 | [12] 0.083

UTP18 (UniProt Q9Y5J1)
inactive: [1] -0.24 | [16] -0.31 | [3] 0.051 | [5] -0.031 | [18] 0.003 | [9] -0.11 | [10] -0.009 | [19] 0.189 | [17] 0.062 | [12] 0.15 | [20] 0.11 | [13] 0.295 | [14] -0.077

VAMP3 (UniProt Q15836)
inactive: [1] 0 | [16] -0.02 | [3] -0.034 | [5] -0.005 | [7] -0.063 | [8] -0.234 | [9] -0.048 | [10] 0.01 | [17] 0.035 | [12] 0.153 | [13] -0.145 | [14] -0.016 | [15] 0.139

UBR3 isoform 4 (UniProt Q6ZT12)
inactive: [1] 0.109 | [16] -0.013 | [3] -0.157 | [5] 0.33 | [7] -0.063 | [8] -0.034 | [9] 0.071 | [10] -0.046 | [17] -0.287 | [12] -0.209 | [13] 0.182 | [15] -0.086

UBXN8 (UniProt O00124)
inactive: [2] 0.056 | [16] 0.147 | [4] 0.141 | [5] -0.41 | [18] -0.149 | [6] -0.036 | [7] 0.167 | [8] -0.019 | [10] 0.077 | [11] 0.039 | [19] 0.211 | [17] 0.138 | [20] -0.227 | [15] 0.259

UTP20 (UniProt O75691)
inactive: [1] -0.082 | [16] 0.053 | [3] -0.321 | [7] 0.061 | [8] 0.04 | [17] -0.172 | [12] 0.081 | [15] 0

ULK3 isoform 4 (UniProt Q6PHR2)
inactive: [16] -0.015 | [5] 0.085 | [18] -0.072 | [9] -0.024 | [10] -0.037 | [19] 0.016 | [17] -0.167 | [20] 0.09 | [13] 0.129

ULBP2 (UniProt Q9BZM5)
inactive: [16] -0.301 | [18] 0.017 | [7] 0.095 | [8] 0.087 | [19] -0.003 | [17] 0.224 | [20] 0.116 | [14] -0.019 | [15] 0.038

UQCC3 (UniProt Q6UW78)
inactive: [16] 0.288 | [5] -0.061 | [10] -0.003 | [17] -0.079 | [14] 0.078

UQCR11 (UniProt O14957)
inactive: [1] -0.154 | [2] 0.126 | [3] 0.017 | [4] 0.133 | [18] 0.028 | [6] 0.062 | [9] 0.14 | [11] -0.102 | [19] -0.081 | [12] 0.029 | [20] -0.101 | [13] 0.006 | [14] -0.222

Looked up one by one from above (3):
ULBP2 (UniProt Q9BZM5)
inactive: [16] -0.301 | [18] 0.017 | [7] 0.095 | [8] 0.087 | [19] -0.003 | [17] 0.224 | [20] 0.116 | [14] -0.019 | [15] 0.038

ULK3 isoform 4 (UniProt Q6PHR2)
inactive: [16] -0.015 | [5] 0.085 | [18] -0.072 | [9] -0.024 | [10] -0.037 | [19] 0.016 | [17] -0.167 | [20] 0.09 | [13] 0.129

UQCC3 (UniProt Q6UW78)
inactive: [16] 0.288 | [5] -0.061 | [10] -0.003 | [17] -0.079 | [14] 0.078

Later entries

VASN (UniProt Q6EMK4)
inactive: [1] 0.086 | [16] 0.03 | [3] 0.446 | [5] -0.083 | [10] 0.479 | [17] 0.07 | [12] -0.225

USP54 (UniProt Q70EL1)
inactive: [1] 0.088 | [3] -0.203 | [5] 0.149 | [7] 0.082 | [8] 0.09 | [10] -0.089 | [12] -0.134 | [15] 0.057

USP4 (UniProt Q13107)
inactive: [9] -0.314 | [13] 0.611
